Data reported in PMC4857404.
Where two headings read alike, the source gives them in different places. These are yes or no findings as the source states them, for the method shown. In cells and extracts the contact can be indirect. Some binding calls cover weakened binding; strength is not graded here. For some of these results: Where a sequence is shown, tags or fusion partners need not be part of it. Blank lines part the entries; values can stand above or below the molecule they belong to.

By UniProt entry, the sequences of proteins in these tests, tags left out. Where a name states a change or a piece, a line headed by the entry shows the natural chain unless it says otherwise. Chains listed by the source or under a name are the forms on record and can include a tag or linker. Residues count along the entry.
UniProt Q9NTX7, residues 92-168: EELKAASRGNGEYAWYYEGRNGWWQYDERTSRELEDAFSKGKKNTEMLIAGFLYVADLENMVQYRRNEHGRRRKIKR
GST-WWE^R164A mutant control (Q9NTX7, form named): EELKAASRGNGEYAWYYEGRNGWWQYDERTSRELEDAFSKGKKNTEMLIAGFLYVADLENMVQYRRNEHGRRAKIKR
UniProt O15169: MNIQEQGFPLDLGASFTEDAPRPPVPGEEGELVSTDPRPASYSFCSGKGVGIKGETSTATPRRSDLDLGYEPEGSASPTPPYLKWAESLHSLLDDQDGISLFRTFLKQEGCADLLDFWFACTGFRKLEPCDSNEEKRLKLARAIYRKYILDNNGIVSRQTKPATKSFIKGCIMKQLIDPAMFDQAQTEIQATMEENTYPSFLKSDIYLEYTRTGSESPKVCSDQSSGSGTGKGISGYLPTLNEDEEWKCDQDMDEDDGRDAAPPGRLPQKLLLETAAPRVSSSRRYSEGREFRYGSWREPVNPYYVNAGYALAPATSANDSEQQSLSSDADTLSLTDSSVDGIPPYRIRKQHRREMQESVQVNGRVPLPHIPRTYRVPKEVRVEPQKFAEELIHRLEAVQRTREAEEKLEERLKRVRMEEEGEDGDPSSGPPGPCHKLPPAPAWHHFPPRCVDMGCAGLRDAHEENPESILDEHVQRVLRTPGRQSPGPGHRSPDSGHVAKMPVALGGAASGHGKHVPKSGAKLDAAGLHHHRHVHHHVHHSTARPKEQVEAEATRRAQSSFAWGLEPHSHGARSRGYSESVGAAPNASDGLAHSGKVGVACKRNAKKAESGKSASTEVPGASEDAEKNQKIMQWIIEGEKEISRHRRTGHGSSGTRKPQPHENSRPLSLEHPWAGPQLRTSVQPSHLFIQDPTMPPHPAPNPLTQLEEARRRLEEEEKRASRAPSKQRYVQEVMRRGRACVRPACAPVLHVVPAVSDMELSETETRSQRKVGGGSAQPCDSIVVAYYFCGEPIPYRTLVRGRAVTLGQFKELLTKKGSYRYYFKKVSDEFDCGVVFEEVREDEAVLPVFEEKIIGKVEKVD

Legend:
Assay in all cases: pull-down; GST-WWE or GST-WWE^R164A beads incubated overnight at 4 °C with lysates of HEK293T cells (transfected with Flag-Axin1 or Flag-Axin1ΔTBD; or untransfected, Wnt3A 0.5 h), S2R+ cells (Wg conditioned medium 1 h; white dsRNA control) or Drosophila embryos (stages 4-5 and 9); lysis or RIPA buffer with 1 μM ADP-HPD, protease and phosphatase inhibitors; four washes (50 mM Tris-HCl pH 8.0, 150 mM NaCl, 1% NP-40); immunoblot; only the target purified
[1] = target: GST-WWE (Trp-Trp-Glu (WWE) domain of the RING-type E3 ubiquitin ligase RNF146/Iduna coupled to glutathione S-transferase) (UniProt Q9NTX7)
[2] = target: GST-WWE (Trp-Trp-Glu (WWE) domain of the RING-type E3 ubiquitin ligase RNF146/Iduna coupled to glutathione S-transferase) (UniProt Q9NTX7); remark: listed apart in the source
[3] = target: GST-WWE^R164A mutant control (UniProt Q9NTX7)

binding [1]: binds
Molecule: endogenous ADP-ribosylated Axin1 of HEK293T cells (from UniProt O15169 1-862)

binding [2]: binds
binding [3]: no binding
B1: endogenous Drosophila Axin (ADP-ribosylated pool) of S2R+ cells (protein, UniProt Q9V407 1-745)
chain: MSGHPSGIRKHDDNECSGPRPPVPGEESRVKKMTEGVADTSKNSSPSYLNWARTLNHLLEDRDGVELFKKYVEEEAPAYNDHLNFYFACEGLKQQTDPEKIKQIIGAIYRFLRKSQLSISDDLRAQIKAIKTNPEIPLSPHIFDPMQRHVEVTIRDNIYPTFLCSEMYILYIQQMSAQQERCTSSGATGSGSAGSSGSGGSSLAGACALPPTTASGKQQLPQLVPPGAFINLPVSSVSGPPAGTCSASGSVYGPSTSASSSGSISATDTLPRSSTLPTLHEDSVLSLCDDFEKVQMQEGGGSLGSGSVGAGARAPDYPIRLTRDLLIATQKRRLEIRPPGAHGYVYNPSTTNTSYVPNSRVDSERASVSSGGRTDSDTMSISSCSMDGRPYIQRRHSSTESKAIRQSAMANKETNTFQVIPRTQRLHSNEHRPLKEEELVSLLIPKLEEVKRKRDLEERARERNPGAALLTNERSSASDRAFAEAIREKFALDEDNDQDILDQHVSRVWKDQTPHRSPGTMSPCPPIPSRRRTATHDSGMVSDGAMSLSGHSMKHSKSMPDHSSCSRKLTNKWPSMNTDSGISMFSADTVTKYKDASSRSGSSTASKLEEAKRRLEDEPRRSRRYAQPPMQHLSQQPLASFSSSSSGGSISLPHQPPPLPAKPPETIVVFSFCEEPVPYRIKIPGTQPTLRQFKDYLPRRGHFRFFFKTHCEDPDSPVIQEEIVNDSDILPLFGDKAMGLVKPSD
modifications: ADP-ribosylated (sites not given)

binding [2]: binds
B2: Axin-V5 (Drosophila Axin tagged with a triple V5 epitope), transgene expressed in embryos (protein, UniProt Q9V407 1-745)
chain: B1 chain
modifications: a pool is ADP-ribosylated (the pool pulled down by GST-WWE); sites not given
